Measured values published in PubChem BioAssay AID504444 (National Center for Advancing Translational Sciences (NCATS), 2011).
The whole screen tested about 360,000 compounds, of which about 7,500 (2.1%) were called active. The inconclusive results got no clear call from the source; some entries with a clear call stand among them for comparison. Calls come from the whole dose curve; as a rule, active = well fitted inhibition curve with a large enough effect; inconclusive = small, poorly fitted or top-dose-only effect, or effect the other way; inactive = flat fitted curve, though single readings scatter. Potencies beside an inconclusive call are fits to weak or partial responses and may not hold up.

Experiment: Nrf2 qHTS screen for inhibitors; note: nearly all actives have a fitted effect of over 60% in size
Conditions: A549 ARE-Fluc reporter, luciferase luminescence, 18-24 h; series mostly up to 46 µM
In short: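 Cells were seeded and rested 2 h, then exposed to compounds for 18-24 h. CellTiter-Fluor was read first as a viability measure. BugLite was added 15 min before the final luminescent read of ARE-luciferase activity in A549 cells.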
Potency is the fitted concentration of half-maximal effect.

Row | Compound | Potency
1 | Cc1ccc(C(=O)N2[C@@H]3CN(C)C(=O)[C@@]2(Cc2ccccc2)[C@H]2C(=O)N(C)C(=O)[C@@H]32)cc1 | inactive
2 | O=C(Nc1ccc(Cl)c(Cl)c1)c1ccc2c(c1)OCO2 | inconclusive: 1.16 µM [activator, full curve, poor fit]
3 | CCCc1ccc(S(=O)(=O)NCc2nnc(SC)n2C)cc1 | inactive
4 | COc1cccc(-c2nc(SCC(=O)Nc3ccc4c(c3)OCO4)c(-c3ccccc3)[nH]2)c1 | inconclusive: 23.1 µM [falling, single point]
5 | CCN(CC)S(=O)(=O)c1ccc(Cl)c(C(=O)Oc2cccnc2)c1 | inconclusive: 6.51 µM [falling, single point]
6 | COc1ccccc1Oc1nc2c(c(=O)n(C)c(=O)n2C)n1Cc1cccc(Br)c1 | active: 16.4 µM
7 | COc1cc2oc3ccccc3c2cc1N(CC(=O)N1CCCCC1)S(=O)(=O)c1ccc(C)cc1 | inconclusive: 29.1 µM [falling, single point]
8 | CC(=O)N1c2ccc(S(=O)(=O)NCC3CCC(C(=O)NCCC(C)C)CC3)cc2CC1C (stereo not given) | inactive
9 | CCOc1cc(-c2nc3ccccn3c2NCC2CCCO2)ccc1O (stereo not given) | inconclusive: 25.9 µM [falling, partial curve, poor fit]
10 | CCc1ccc(CN(C(=O)COc2c(C)cccc2C)C2CCS(=O)(=O)C2)cc1 (stereo not given) | inconclusive: 20.6 µM [falling, partial curve]
11 | COC(=O)Cc1ccc(NC(=S)NCCO)cc1 | inactive
12 | CCc1ccc(NS(=O)(=O)c2cccc3nsnc23)cc1 | inconclusive: 20.6 µM [falling, single point]
13 | CC(=O)c1ccc(NC(=O)Nc2ccc(Cl)cc2)cc1 | inconclusive: 1.64 µM [activator, partial curve]
14 | C(=C\c1ccccc1)/C=N/Nc1nc2ccccc2[nH]1 | inconclusive: 11.6 µM [activator, partial curve]
15 | Oc1ccc(/C=N\Nc2nncc(-c3ccccc3)n2)cc1 | inconclusive: 7.31 µM [falling, single point]
16 | COc1ccccc1-c1nnc(SCC(=O)c2c(N)n(C3CC3)c(=O)[nH]c2=O)o1 | inactive
17 | Cc1ccc(S(=O)(=O)N2[C@@H](c3ccc(C(C)(C)C)cc3)C(C(=O)O)=CC[C@H]2c2ccc(C(C)C)cc2)cc1 | active: 2.91 µM
18 | COc1ccc2c(Sc3ccccc3)c(C(=O)NCc3cccc(OC)c3OC)[nH]c2c1 | active: 9.2 µM
19 | COc1ccccc1C(=O)NCCCNc1ccc([N+](=O)[O-])cc1 | inconclusive: 7.31 µM [falling, partial curve, poor fit]
20 | COc1cc(/C=C/C(=O)c2ccc(NS(=O)(=O)c3ccc(C)cc3)cc2)cc(OC)c1O | active: 23.1 µM
21 | CCOc1ccc(/C=C/C(O)=C2/C(=O)NC3(C)CC2c2ccccc2O3)cc1OC (stereo not given) | inconclusive: 0.651 µM [falling, partial curve, poor fit]
22 | O=C(N/N=C/c1sc(N2CCOCC2)nc1-c1ccccc1)c1cccc(S(=O)(=O)N2CCOCC2)c1 | inconclusive: 23.1 µM [falling, single point]

Row | Compound | Potency
23 | CN(CCC#N)C(=O)COC(=O)[C@H](Cc1ccccc1)N1C(=O)c2ccccc2C1=O | inconclusive: 20.6 µM [activator, single point]
24 | CCOC(=O)C1(C)C=C(Nc2ccc(C(N)=O)cc2)C(=O)N1c1ccccc1 (stereo not given) | inactive
25 | Cc1[nH]nc2c1C(c1cnn(C)c1)C(C#N)=C(N)O2 (stereo not given) | inconclusive: 29.1 µM [falling, single point]
26 | O=C(CCC1CCCN(C(=O)CCN2CCCCC2=O)C1)NCc1ccccc1F (stereo not given) | inconclusive: 20.6 µM [activator, partial curve, poor fit]
27 | CN1C(=O)Cc2cc(S(=O)(=O)CCC(=O)Nc3cccc(C(F)(F)F)c3)ccc21 | inconclusive: 25.9 µM [activator, single point]
28 | O=C(CSc1nnc(-c2ccccc2Cl)o1)Nc1ccccn1 | inconclusive: 16.4 µM [falling, single point]
29 | O=C1C=CC(=O)N1c1ccc(O)cc1 | inconclusive: 18.4 µM [falling, single point]
30 | Cc1ccc(C(c2nnnn2CCc2ccccc2)N2CCSCC2)cc1 (stereo not given) | inactive
31 | c1ccc(Nc2nc(NCc3ccco3)c3ccccc3n2)cc1 | inconclusive: 29.1 µM [falling, single point]
32 | O=C(CN1CCCC1)Nc1ccc(Br)cc1[N+](=O)[O-] | inconclusive: 20.6 µM [activator, partial curve, poor fit]
33 | CSc1ccccc1NC(=O)COc1ccccc1Cl | inconclusive: 20.6 µM [activator, partial curve]
34 | O=C(C1CCC1)N1CCN(S(=O)(=O)c2ccc(Br)cc2Cl)CC1 | inconclusive: 9.2 µM [falling, partial curve, poor fit]
35 | O=C(COC(=O)CCS(=O)(=O)c1ccc(Cl)cc1)NC1CCCCC1 | inconclusive: 0.291 µM [falling, full curve]
36 | CCOCCCNC(=O)c1cc2c(=O)n(CC)c3ccccc3c2s1 | inconclusive: 25.9 µM [falling, single point]
37 | Cc1ccc(N2C(=O)[C@@H]3C(c4cccnc4)=NO[C@@H]3C2=O)cc1 | inactive
38 | CCCN1C(=O)C(Cc2nc3ccccc3c(=O)n2CC)c2ccccc21 (stereo not given) | inactive
39 | CN(c1ccccc1)S(=O)(=O)c1ccc(NC(=O)c2ccc(-c3ccccc3)cc2)cc1 | active: 14.6 µM
40 | CCCc1cc(N2CCN(c3cc(Cl)ccc3C)CC2)n2cnnc2n1 | inconclusive: 29.1 µM [falling, single point]
41 | O=C(CCSc1ccc(Br)cc1)c1ccc(O)cc1 | inconclusive: 29.1 µM [falling, single point]
42 | COc1ccc(C(=O)N2CCC(C(=O)c3c(C)cc(C)cc3C)CC2)cc1 | inconclusive: 29.1 µM [falling, single point]
43 | Nc1cc(=O)[nH]c(SCC(=O)Nc2ccc(Cl)c(Cl)c2)n1 | inconclusive: 0.103 µM [falling, full curve]
44 | CN(C(=O)c1cccc(NC(=O)Cc2ccc(NC(=O)C3CCCN(C(=O)C4CCCCC4)C3)cc2)c1)C1CCCC1 (stereo not given) | inconclusive: 18.4 µM [falling, single point]

An excerpt from above in order of molar mass, ascending.
Row | Compound | Potency
41 | O=C(CCSc1ccc(Br)cc1)c1ccc(O)cc1 | inconclusive: 29.1 µM [falling, single point]
20 | COc1cc(/C=C/C(=O)c2ccc(NS(=O)(=O)c3ccc(C)cc3)cc2)cc(OC)c1O | active: 23.1 µM
6 | COc1ccccc1Oc1nc2c(c(=O)n(C)c(=O)n2C)n1Cc1cccc(Br)c1 | active: 16.4 µM
17 | Cc1ccc(S(=O)(=O)N2[C@@H](c3ccc(C(C)(C)C)cc3)C(C(=O)O)=CC[C@H]2c2ccc(C(C)C)cc2)cc1 | active: 2.91 µM

(list continues)

Row | Compound | Potency
45 | O=c1c2sc(-c3ccccc3)cc2nc2n1CCC2 | inconclusive: 0.231 µM [activator, full curve, poor fit]
46 | COc1ccc(-c2cc(NCc3ccc(F)cc3)n3cnnc3n2)cc1 | inactive
47 | CCCN1CCC(=O)N([C@H](CSc2ccc(C)cc2)CC(C)C)CC1 | inconclusive: 7.31 µM [activator, partial curve]
48 | C=CCN1N=C(/C=C/c2ccc(OC)cc2)CCC1=O | inconclusive: 8.2 µM [activator, partial curve]
49 | CCc1ccc(-c2ccc(C(=O)C(F)(F)F)[nH]2)cc1 | inconclusive: 2.31 µM [activator, partial curve]
50 | Cc1ccc(S(=O)(=O)N(C)C)cc1NC(=O)c1cc(=O)c2ccccc2o1 | inconclusive: 10.3 µM [falling, partial curve, poor fit]
51 | CCCCCCCOc1ccc(C(=O)Nc2cccnc2)cc1 | inconclusive: 20.6 µM [falling, single point]
52 | CC(=O)Nc1cccc(Nc2nc(-c3ccccc3F)nc3ccccc23)c1 | inconclusive: 14.6 µM [falling, partial curve, poor fit]
53 | Cc1cc(OCC(=O)NCC2(N3CCN(C)CC3)CCCCC2)cc(C)c1Cl | inactive
54 | CCn1c(CNC(=O)COc2ccc(C(C)C)cc2)nnc1SCC(=O)Nc1ccccc1F | inconclusive: 29.1 µM [falling, single point]
55 | CCOC(=O)C1CCCN(C(=O)c2ccc3c(=O)n(CCOC)c(=S)[nH]c3c2)C1 (stereo not given) | inconclusive: 13 µM [falling, partial curve, poor fit]
56 | COC(=O)/N=C/c1c(NCc2ccccc2)nc2c(C)cccn2c1=O | inconclusive: 6.51 µM [activator, partial curve, poor fit]
57 | CCOC(=O)C(C(=O)NCc1ccc(F)cc1)c1ncc(C(F)(F)F)cc1Cl (stereo not given) | inconclusive: 2.31 µM [falling, partial curve, poor fit]
58 | O=C(COC(=O)C1CCN(c2ccc(C(F)(F)F)cn2)CC1)c1ccc(F)cc1 | inconclusive: 7.31 µM [activator, partial curve, poor fit]
59 | CCOc1ccc(NC(=O)CN2CCN(CC(=O)Nc3ccc(Cl)c(C(F)(F)F)c3)CC2)cc1 | inconclusive: 29.1 µM [falling, single point]
60 | COc1ccc(S(=O)(=O)N2CCCCCC2)cc1N(C)S(=O)(=O)c1ccc(C)cc1 | inconclusive: 29.1 µM [falling, single point]
61 | COc1ccc(C2CC(=O)Oc3c(C(C)C)ccc(C)c32)cc1 (stereo not given) | inconclusive: 29.1 µM [falling, single point]
62 | COc1ccc(C(=O)OC(C)C(=O)NC2CCCc3ccccc32)cc1OC (stereo not given) | inconclusive: 13 µM [falling, partial curve, poor fit]
63 | C=CCn1c(SCC(=O)Nc2ccc3c(c2)CCC3)nnc1-c1cccs1 | inconclusive: 25.9 µM [falling, single point]
64 | O=C(CNS(=O)(=O)c1cccs1)Nc1ccc2c(c1)OCCO2 | inconclusive: 23.1 µM [activator, single point]
65 | Cc1cc(C)cc(Nc2cc(-c3ccccc3)nc(C)n2)c1 | inconclusive: 16.4 µM [falling, partial curve, poor fit]
